PubChem BioAssay AID1053208 – Peter MacCallum Cancer Centre | 2014

Assay: 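Synthetic lethal interactions between gene loss and doxorubicin in osteosarcoma cells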 (primary screen)
System: mouse osteosarcoma cells, early-passage culture from an engineered mouse model of fibroblastic bone tumour
Reagents: siRNA pool against mouse genes, 40 nM
Duration: about 120 h (48 h before drug, then 72 h with drug)
Conditions: doxorubicin 100 nM for 72 h, roughly 30-40% inhibitory dose
Measurement: 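Luminescent ATP signal taken as viability with or without 100 nM doxorubicin for 72 h; mean of two wells set against non-targeting siRNA and turned into robust z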
Reading the numbers: viability z-score with doxorubicin and doxorubicin viability vs non-targeting: higher = more viable cells under doxorubicin; viability z-score without drug: higher = more viable cells with knock-down alone; z-score of drug to no-drug ratio: higher = less drug sensitisation by knock-down
Rule for the call: 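Called active if knock-down leaves viability unchanged without drug (z within -2 to 2) but lowers it with doxorubicin (z at or under -2)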
In all, the deposit lists about 17,000 reagents; this is an unselected part. 788 of them (4.7%) were called active. 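Calls rest on z-score classes alone; an extra cut-off of viability at most 70% of control was not applied to them.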 Some reagents were tested in more than one well and are listed for each.

no.	gene symbol	combined z-score class	viability z-score with doxorubicin	viability z-score without drug	z-score of drug to no-drug ratio	doxorubicin viability vs non-targeting	activity call
1	A730008H23Rik	no change with or without drug	-0.9	-1.35	0.11	0.86	inactive
2	Ffar3	no change with or without drug	-0.34	1.69	-1.24	0.91	inactive
3	Olfml2a	low cell count without drug only	-1.35	-2.02	0.11	0.82	inactive
4	Dennd4b	no change with or without drug	-1.12	-0.34	-0.9	0.84	inactive
5	Mogat1	no change with or without drug	1.35	-0.17	1.69	1.06	inactive
6	Rbm41	high cell count without drug only	1.8	2.02	0.56	1.1	inactive
7	Atg4c	no change with or without drug	0.45	-0.17	0.67	0.98	inactive
8	Myoz1	no change with or without drug	0.56	1.35	-0.22	0.99	inactive
9	Akap19	no change with or without drug	-1.01	-0.17	-0.9	0.85	inactive
10	Ccl21d	no change with or without drug	-1.12	-0.17	-1.01	0.84	inactive
11	Tyms	no change with or without drug	-0.22	-0.51	0.22	0.92	inactive
12	Prkce	high cell count with doxorubicin only	2.25	0.51	2.02	1.14	inactive
13	Parvb	no change with or without drug	0.34	-0.51	0.79	0.97	inactive
14	Gcnt1	no change with or without drug	-1.12	0.67	-1.46	0.84	inactive
15	Lce1b	high cell count with doxorubicin only	2.47	1.85	1.24	1.16	inactive
16	Anxa4	no change with or without drug	-1.12	0.67	-1.46	0.84	inactive
17	Mdga1	low cell count without drug only	-0.22	-2.87	2.25	0.92	inactive
18	Hprt1	no change with or without drug	-0.11	-0.84	0.56	0.93	inactive
19	Hspa1l	no change with or without drug	-0.22	-0.17	0	0.92	inactive
20	Trpv2	no change with or without drug	0.67	1.18	0	1	inactive
21	Nedd4l	high cell count with and without drug	2.36	2.02	1.01	1.15	inactive
22	Cimip2a	no change with or without drug	0.11	1.18	-0.56	0.95	inactive
23	Fhod3	high cell count without drug only	0.22	2.02	-0.9	0.96	inactive
24	Dazl	no change with or without drug	0.67	1.52	-0.22	1	inactive

The list goes on; the last 4 above are carried over.
no.	gene symbol	combined z-score class	viability z-score with doxorubicin	viability z-score without drug	z-score of drug to no-drug ratio	doxorubicin viability vs non-targeting	activity call
21	Nedd4l	high cell count with and without drug	2.36	2.02	1.01	1.15	inactive
22	Cimip2a	no change with or without drug	0.11	1.18	-0.56	0.95	inactive
23	Fhod3	high cell count without drug only	0.22	2.02	-0.9	0.96	inactive
24	Dazl	no change with or without drug	0.67	1.52	-0.22	1	inactive
25	Trappc2b	no change with or without drug	1.8	1.18	1.12	1.1	inactive
26	Kat5	no change with or without drug	1.8	0.17	1.91	1.1	inactive
27	Rpl19	low cell count with and without drug	-4.72	-2.19	-3.93	0.52	inactive
28	Pitx1	no change with or without drug	-0.9	1.52	-1.69	0.86	inactive
29	Nphs1	no change with or without drug	0.11	-1.52	1.35	0.95	inactive
30	Zfp758	no change with or without drug	0.34	0.17	0.34	0.97	inactive
31	Bub1b	no change with or without drug	-1.12	0.17	-1.12	0.84	inactive
32	C130074G19Rik	no change with or without drug	-1.57	1.01	-2.14	0.8	inactive
33	Sh3gl1	no change with or without drug	-0.9	-1.18	0	0.86	inactive
34	Ktn1	no change with or without drug	-0.67	-1.18	0.22	0.88	inactive
35	Ceacam13	no change with or without drug	-1.46	-1.18	-0.67	0.81	inactive
36	Slc17a5	no change with or without drug	-0.67	-0.34	-0.34	0.88	inactive
37	Smco4	no change with or without drug	-0.67	0.67	-1.01	0.88	inactive
38	Nop58	low cell count with and without drug	-3.93	-5.9	0	0.59	inactive
39	Col1a1	no change with or without drug	-0.56	0.17	-0.56	0.89	inactive
40	Cnmd	no change with or without drug	0.79	0.17	0.79	1.01	inactive
41	Mbd4	no change with or without drug	1.8	0.34	1.69	1.1	inactive
42	Stk36	low cell count with doxorubicin only	-2.47	-1.35	-1.69	0.72	active
43	Stk36	no change with or without drug	-0.45	-0.84	0.22	0.9	inactive
44	Vmn2r-ps11	no change with or without drug	-0.45	1.52	-1.24	0.9	inactive
45	Zic5	high cell count with doxorubicin only	2.02	0.84	1.57	1.12	inactive
46	Aox1	no change with or without drug	0.22	-0.67	0.79	0.96	inactive
47	Samd12	no change with or without drug	-0.45	-0.17	-0.22	0.9	inactive
48	Or5g9	no change with or without drug	-1.24	-1.85	0.11	0.83	inactive
49	Or51a10	no change with or without drug	0.22	1.18	-0.45	0.96	inactive
50	Snapc2	no change with or without drug	-0.34	1.52	-1.12	0.91	inactive
